Values quoted from earlier work in patent publication US10793559B2, “Chemical compounds” (GlaxoSmithKline Intellectual Property Development Limited, priority 2016, dated 2020).
Where two headings read alike, the source gives them in different places.

Sequences of proteins named here, by UniProt entry; tags and fusion partners are left off.
UniProt P68400, whole entry: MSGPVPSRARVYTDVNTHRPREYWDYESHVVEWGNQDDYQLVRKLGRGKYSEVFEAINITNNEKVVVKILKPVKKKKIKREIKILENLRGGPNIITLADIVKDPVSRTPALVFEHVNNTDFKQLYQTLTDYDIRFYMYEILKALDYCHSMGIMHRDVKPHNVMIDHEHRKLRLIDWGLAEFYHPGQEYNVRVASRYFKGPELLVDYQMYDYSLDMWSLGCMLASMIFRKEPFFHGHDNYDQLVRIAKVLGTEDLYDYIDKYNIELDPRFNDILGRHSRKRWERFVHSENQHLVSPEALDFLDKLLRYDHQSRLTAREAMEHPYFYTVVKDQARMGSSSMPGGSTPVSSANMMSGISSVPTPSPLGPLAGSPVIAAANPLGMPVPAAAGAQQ

Tests used:
[1] = tested on: Class I PI3-kinases; settings: cited from earlier work
[2] = molecular target: CK2 protein kinase (Homo sapiens, UniProt P68400); settings: read-out: IC50 on CK2 protein kinase; cited from earlier work

In the case of `COC[C@H]1OC(=O)c2coc3c2[C@@]1(C)C1=C(C3=O)[C@@H]2CCC(=O)[C@@]2(C)C[C@H]1OC(C)=O` [wortmannin], the IC50 ([1]; read-out: IC50 values against each of the various Class I PI3-kinases) is given as 0.001 to 0.01 µM.

For `O=c1cc(N2CCOCC2)oc2c(-c3ccccc3)cccc12` [LY294002], the IC50 ([1]; Fruman et al. 1998, read-out: IC50 values against each of these PI3-kinases) is listed as 15 to 20 µM and the IC50 [2] is listed as 5 to 10 µM.
